Source: paper doi:10.1101/495762 (bioRxiv, 2018)
Read-outs that look alike come from different tables or passages of the source. Results are given in words; binding and its absence hold for the method and conditions named. In cells and extracts the contact can be indirect. Some results given as binding are weak or reduced against the parent protein; the word gives no strength. For some of these results: Sequences can lack the tags named with a protein.

B1: Smc1(N1192C)-HA6 (natural protein, S. cerevisiae, UniProt P32908 1-1225, looked up)
chain: MGRLVGLELSNFKSYRGVTKVGFGESNFTSIIGPNGSGKSNMMDAISFVLGVRSNHLRSNILKDLIYRGVLNDENSDDYDNEGAASSNPQSAYVKAFYQKGNKLVELMRIISRNGDTSYKIDGKTVSYKDYSIFLENENILIKAKNFLVFQGDVEQIAAQSPVELSRMFEEVSGSIQYKKEYEELKEKIEKLSKSATESIKNRRRIHGELKTYKEGINKNEEYRKQLDKKNELQKFQALWQLYHLEQQKEELTDKLSALNSEISSLKGKINNEMKSLQRSKSSFVKESAVISKQKSKLDYIFKDKEKLVSDLRLIKVPQQAAGKRISHIEKRIESLQKDLQRQKTYVERFETQLKVVTRSKEAFEEEIKQSARNYDKFKLNENDLKTYNCLHEKYLTEGGSILEEKIAVLNNDKREIQEELERFNKRADISKRRITEELSITGEKLDTQLNDLRVSLNEKNALHTERLHELKKLQSDIESANNQEYDLNFKLRETLVKIDDLSANQRETMKERKLRENIAMLKRFFPGVKGLVHDLCHPKKEKYGLAVSTILGKNFDSVIVENLTVAQECIAFLKKQRAGTASFIPLDTIETELPTLSLPDSQDYILSINAIDYEPEYEKAMQYVCGDSIICNTLNIAKDLKWKKGIRGKLVTIEGALIHKAGLMTGGISGDANNRWDKEEYQSLMSLKDKLLIQIDELSNGQRSNSIRAREVENSVSLLNSDIANLRTQVTQQKRSLDENRLEIKYHNDLIEKEIQPKITELKKKLDDLENTKDNLVKEKEALQNNIFKEFTSKIGFTIKEYENHSGELMRQQSKELQQLQKQILTVENKLQFETDRLSTTQRRYEKAQKDLENAQVEMKSLEEQEYAIEMKIGSIESKLEEHKNHLDELQKKFVTKQSELNSSEDILEDMNSNLQVLKRERDGIKEDIEKFDLERVTALKNCKISNINIPISSETTIDDLPISSTDNEAITISNSIDINYKGLPKKYKENNTDSARKELEQKIHEVEEILNELQPNARALERYDEAEGRFEVINNETEQLKAEEKKILNQFLKIKKKRKELFEKTFDYVSDHLDAIYRELTKNPNSNVELAGGNASLTIEDEDEPFNAGIKYHATPPLKRFKDMEYLSGGEKTVAALALLFAINSYQPSPFFVLDEVDAALDITNVQRIAAYIRRHRNPDLQFIVISLKCTMFEKSDALVGVYRQQQENSSKIITLDLSNYAE
B2: Smc1(S161C, K639C)-HA (protein, UniProt P32908 1-1225)
chain: MGRLVGLELSNFKSYRGVTKVGFGESNFTSIIGPNGSGKSNMMDAISFVLGVRSNHLRSNILKDLIYRGVLNDENSDDYDNEGAASSNPQSAYVKAFYQKGNKLVELMRIISRNGDTSYKIDGKTVSYKDYSIFLENENILIKAKNFLVFQGDVEQIAAQCPVELSRMFEEVSGSIQYKKEYEELKEKIEKLSKSATESIKNRRRIHGELKTYKEGINKNEEYRKQLDKKNELQKFQALWQLYHLEQQKEELTDKLSALNSEISSLKGKINNEMKSLQRSKSSFVKESAVISKQKSKLDYIFKDKEKLVSDLRLIKVPQQAAGKRISHIEKRIESLQKDLQRQKTYVERFETQLKVVTRSKEAFEEEIKQSARNYDKFKLNENDLKTYNCLHEKYLTEGGSILEEKIAVLNNDKREIQEELERFNKRADISKRRITEELSITGEKLDTQLNDLRVSLNEKNALHTERLHELKKLQSDIESANNQEYDLNFKLRETLVKIDDLSANQRETMKERKLRENIAMLKRFFPGVKGLVHDLCHPKKEKYGLAVSTILGKNFDSVIVENLTVAQECIAFLKKQRAGTASFIPLDTIETELPTLSLPDSQDYILSINAIDYEPEYEKAMQYVCGDSIICNTLNIACDLKWKKGIRGKLVTIEGALIHKAGLMTGGISGDANNRWDKEEYQSLMSLKDKLLIQIDELSNGQRSNSIRAREVENSVSLLNSDIANLRTQVTQQKRSLDENRLEIKYHNDLIEKEIQPKITELKKKLDDLENTKDNLVKEKEALQNNIFKEFTSKIGFTIKEYENHSGELMRQQSKELQQLQKQILTVENKLQFETDRLSTTQRRYEKAQKDLENAQVEMKSLEEQEYAIEMKIGSIESKLEEHKNHLDELQKKFVTKQSELNSSEDILEDMNSNLQVLKRERDGIKEDIEKFDLERVTALKNCKISNINIPISSETTIDDLPISSTDNEAITISNSIDINYKGLPKKYKENNTDSARKELEQKIHEVEEILNELQPNARALERYDEAEGRFEVINNETEQLKAEEKKILNQFLKIKKKRKELFEKTFDYVSDHLDAIYRELTKNPNSNVELAGGNASLTIEDEDEPFNAGIKYHATPPLKRFKDMEYLSGGEKTVAALALLFAINSYQPSPFFVLDEVDAALDITNVQRIAAYIRRHRNPDLQFIVISLKNTMFEKSDALVGVYRQQQENSSKIITLDLSNYAE

Legend:
Assay in all cases: cross-linking
[1] = target: T1, Smc3(R1222C) (S. cerevisiae) (UniProt P47037)
T1 sequence: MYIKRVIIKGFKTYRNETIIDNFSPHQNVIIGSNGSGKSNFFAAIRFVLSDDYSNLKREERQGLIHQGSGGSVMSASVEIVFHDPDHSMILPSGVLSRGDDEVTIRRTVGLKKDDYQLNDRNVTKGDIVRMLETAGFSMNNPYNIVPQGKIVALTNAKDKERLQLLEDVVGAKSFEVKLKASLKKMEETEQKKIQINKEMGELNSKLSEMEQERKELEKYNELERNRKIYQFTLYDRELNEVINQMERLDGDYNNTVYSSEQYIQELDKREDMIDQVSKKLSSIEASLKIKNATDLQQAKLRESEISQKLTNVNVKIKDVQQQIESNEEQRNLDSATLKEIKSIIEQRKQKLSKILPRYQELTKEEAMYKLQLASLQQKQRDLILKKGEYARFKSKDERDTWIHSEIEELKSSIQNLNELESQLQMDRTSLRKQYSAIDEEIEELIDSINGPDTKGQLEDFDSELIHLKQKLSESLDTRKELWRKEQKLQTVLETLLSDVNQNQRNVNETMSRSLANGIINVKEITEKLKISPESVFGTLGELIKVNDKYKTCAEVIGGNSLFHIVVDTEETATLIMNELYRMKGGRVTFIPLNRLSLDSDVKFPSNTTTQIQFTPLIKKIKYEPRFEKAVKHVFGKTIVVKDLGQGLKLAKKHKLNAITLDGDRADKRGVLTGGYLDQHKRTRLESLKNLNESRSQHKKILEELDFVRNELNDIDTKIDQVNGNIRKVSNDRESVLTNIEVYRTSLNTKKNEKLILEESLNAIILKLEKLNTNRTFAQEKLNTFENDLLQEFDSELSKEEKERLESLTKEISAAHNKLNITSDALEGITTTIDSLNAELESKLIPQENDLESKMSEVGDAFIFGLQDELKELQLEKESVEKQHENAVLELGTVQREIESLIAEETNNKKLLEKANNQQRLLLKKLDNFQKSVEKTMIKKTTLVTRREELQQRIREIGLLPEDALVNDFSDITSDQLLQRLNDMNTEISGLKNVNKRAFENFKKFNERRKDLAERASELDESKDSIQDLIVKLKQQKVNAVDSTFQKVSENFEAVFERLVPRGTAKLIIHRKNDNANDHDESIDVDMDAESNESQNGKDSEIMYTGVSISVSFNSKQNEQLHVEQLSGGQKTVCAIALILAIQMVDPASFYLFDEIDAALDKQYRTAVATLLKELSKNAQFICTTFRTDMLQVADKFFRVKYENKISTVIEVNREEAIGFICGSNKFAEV

[2] = target: T2, Smc3(R1222C)-PK6 (S. cerevisiae) (UniProt P47037)
T2 sequence: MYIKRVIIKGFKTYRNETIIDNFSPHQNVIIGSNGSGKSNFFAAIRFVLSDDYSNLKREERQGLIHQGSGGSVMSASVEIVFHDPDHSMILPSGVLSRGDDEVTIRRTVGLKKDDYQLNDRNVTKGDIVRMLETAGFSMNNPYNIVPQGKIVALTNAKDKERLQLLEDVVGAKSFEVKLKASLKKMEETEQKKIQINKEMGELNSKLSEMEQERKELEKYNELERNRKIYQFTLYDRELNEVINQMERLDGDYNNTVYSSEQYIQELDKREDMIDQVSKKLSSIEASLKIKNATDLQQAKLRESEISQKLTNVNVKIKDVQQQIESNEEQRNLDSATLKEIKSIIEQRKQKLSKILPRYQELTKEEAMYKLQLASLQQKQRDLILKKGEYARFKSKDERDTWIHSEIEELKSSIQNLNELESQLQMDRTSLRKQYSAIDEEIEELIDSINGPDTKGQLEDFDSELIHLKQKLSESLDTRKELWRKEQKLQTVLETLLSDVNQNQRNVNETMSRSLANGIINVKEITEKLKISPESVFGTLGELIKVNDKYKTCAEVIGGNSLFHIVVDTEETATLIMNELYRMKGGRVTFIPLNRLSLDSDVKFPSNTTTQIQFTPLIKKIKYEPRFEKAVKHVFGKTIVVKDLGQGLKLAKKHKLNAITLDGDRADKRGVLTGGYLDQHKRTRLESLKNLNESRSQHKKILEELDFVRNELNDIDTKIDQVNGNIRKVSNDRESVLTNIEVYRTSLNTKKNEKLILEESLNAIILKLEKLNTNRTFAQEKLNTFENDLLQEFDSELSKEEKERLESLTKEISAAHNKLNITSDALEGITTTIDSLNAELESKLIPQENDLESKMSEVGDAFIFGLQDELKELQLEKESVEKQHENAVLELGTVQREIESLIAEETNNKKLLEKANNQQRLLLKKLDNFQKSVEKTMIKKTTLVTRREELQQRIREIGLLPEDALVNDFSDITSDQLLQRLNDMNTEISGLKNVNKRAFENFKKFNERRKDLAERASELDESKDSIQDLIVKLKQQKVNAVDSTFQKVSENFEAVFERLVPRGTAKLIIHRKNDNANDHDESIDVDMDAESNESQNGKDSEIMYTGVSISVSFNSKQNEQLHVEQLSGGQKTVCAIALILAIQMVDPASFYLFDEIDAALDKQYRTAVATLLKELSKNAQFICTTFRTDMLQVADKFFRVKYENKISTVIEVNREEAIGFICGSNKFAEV

[3] = target: T1, Smc3(R1222C) (S. cerevisiae); remark: listed apart in the source
[4] = target: T3, Smc3(K160C, E570C) (S. cerevisiae) (UniProt P47037)
T3 sequence: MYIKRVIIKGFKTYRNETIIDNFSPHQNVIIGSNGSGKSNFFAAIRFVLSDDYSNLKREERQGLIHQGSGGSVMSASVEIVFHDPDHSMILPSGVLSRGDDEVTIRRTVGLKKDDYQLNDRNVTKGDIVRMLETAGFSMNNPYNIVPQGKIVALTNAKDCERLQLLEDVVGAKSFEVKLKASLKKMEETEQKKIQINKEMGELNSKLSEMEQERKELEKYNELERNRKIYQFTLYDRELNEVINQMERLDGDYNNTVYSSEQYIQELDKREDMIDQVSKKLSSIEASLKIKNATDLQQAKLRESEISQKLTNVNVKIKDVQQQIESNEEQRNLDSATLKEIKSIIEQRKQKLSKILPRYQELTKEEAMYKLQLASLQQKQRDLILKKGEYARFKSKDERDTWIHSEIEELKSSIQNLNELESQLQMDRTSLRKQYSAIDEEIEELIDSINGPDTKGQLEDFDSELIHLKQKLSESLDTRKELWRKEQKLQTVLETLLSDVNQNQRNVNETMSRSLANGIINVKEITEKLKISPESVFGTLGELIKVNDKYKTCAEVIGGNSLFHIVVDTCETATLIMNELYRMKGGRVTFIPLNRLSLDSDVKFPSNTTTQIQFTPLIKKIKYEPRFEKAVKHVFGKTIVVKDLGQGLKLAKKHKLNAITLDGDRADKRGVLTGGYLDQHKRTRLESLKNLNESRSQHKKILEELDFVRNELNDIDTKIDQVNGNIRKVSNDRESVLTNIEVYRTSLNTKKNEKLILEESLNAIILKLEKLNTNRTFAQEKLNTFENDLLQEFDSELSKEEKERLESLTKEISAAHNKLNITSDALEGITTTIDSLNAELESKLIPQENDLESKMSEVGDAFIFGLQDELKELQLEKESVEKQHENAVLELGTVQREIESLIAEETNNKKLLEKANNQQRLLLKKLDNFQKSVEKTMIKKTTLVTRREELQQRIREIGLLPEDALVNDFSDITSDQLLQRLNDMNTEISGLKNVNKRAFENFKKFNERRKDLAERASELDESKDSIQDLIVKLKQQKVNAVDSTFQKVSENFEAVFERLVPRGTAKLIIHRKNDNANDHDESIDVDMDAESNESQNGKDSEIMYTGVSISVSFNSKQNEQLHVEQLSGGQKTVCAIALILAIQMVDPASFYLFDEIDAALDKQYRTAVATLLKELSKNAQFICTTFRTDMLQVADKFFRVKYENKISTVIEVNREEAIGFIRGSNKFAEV

Binder | binding [1] | binding [2] | binding [3] | binding [4]
B1 | binds | binds | binds | 
B2 |  |  |  | binds
